# This is one part of the list.
# Target: T1, OsSMF1 (Oryza sativa, UniProt Q6ZLB0 1-436)
# T1 sequence: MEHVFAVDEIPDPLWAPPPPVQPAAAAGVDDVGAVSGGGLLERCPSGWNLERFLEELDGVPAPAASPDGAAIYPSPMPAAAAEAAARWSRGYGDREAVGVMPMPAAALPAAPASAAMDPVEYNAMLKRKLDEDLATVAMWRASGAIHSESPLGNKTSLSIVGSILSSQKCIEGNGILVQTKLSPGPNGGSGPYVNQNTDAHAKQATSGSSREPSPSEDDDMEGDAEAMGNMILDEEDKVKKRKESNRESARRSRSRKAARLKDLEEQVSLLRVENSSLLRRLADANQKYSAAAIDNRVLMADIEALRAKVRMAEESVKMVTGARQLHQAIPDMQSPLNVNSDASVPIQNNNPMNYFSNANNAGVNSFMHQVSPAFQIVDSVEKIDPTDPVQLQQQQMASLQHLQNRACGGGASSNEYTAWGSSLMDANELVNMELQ
# Test: protein-binding microarray (RPBM); PBS, 2% BSA, 51.3 ng/ul salmon testes DNA, 50 uM zinc acetate, 200 nM TF, 25 C, 1 h; high values mean tight binding
# Details: protein: recombinant; tags: N-terminal polyhistidine and DsRed monomer fusion (pET32a); chain copies: 2; label: CyDye5-dUTP incorporated in the synthesized complementary strand; 3' TTTTT single-stranded linker to array surface; dsDNA, one strand shown
# How it was run: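 Transcription factors, each fused N-terminally to a polyhistidine tag and DsRed, were expressed in E. coli BL21-CodonPlus and purified on Ni–NTA. A custom Agilent array was made double-stranded by primer extension with Cy5-dUTP and blocked with 2% BSA. It was incubated with 200 nM protein in PBS, 2% BSA, salmon testes DNA and 50 µM zinc acetate at 25 °C for 1 h, then washed. The binding signal is per-feature fluorescence intensity (arbitrary units) read on an Axon 4000B scanner.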
row,Sequence,binding signal
1,GTCTTGGGCCTCCACTCGAGGCTGACACACATGGGCCGTACGGAGTCACCTAGTGCAG,3910 fluorescence intensity (a.u.)
2,TGTATTTGTCATCCAACGCGACACACAAGCATAATACATGCGGAGTCACCTAGTGCAG,3900 fluorescence intensity (a.u.)
3,AAAAGAATGTTTCCATCTCTCGTACCTTCTCTTTCTAGTACGGAGTCACCTAGTGCAG,22400 fluorescence intensity (a.u.)
4,ATATCTCGTGTCATCTCTCCTTCATGCATACTGCTCAGTACGGAGTCACCTAGTGCAG,4000 fluorescence intensity (a.u.)
5,CAAAACCATCCATCTACACTTTTAAAGGAACTAATTTAACCGGAGTCACCTAGTGCAG,3360 fluorescence intensity (a.u.)
6,CTTACTCTGTCGCCTACTAGTCCACCTCTCACTGTTGTTCCGGAGTCACCTAGTGCAG,3180 fluorescence intensity (a.u.)
7,ATTTTGGAGCTGCTACAATTGATTCTATGTTACGATTTGTCGGAGTCACCTAGTGCAG,27300 fluorescence intensity (a.u.)
8,CAAGTAAGTGGTCTGCCAGCGCGGCCTCCCTCCGCCTCCTCGGAGTCACCTAGTGCAG,3490 fluorescence intensity (a.u.)
9,ATCGTCCTGTCACTTGCCCATAATCGAACTGGACCTTGATCGGAGTCACCTAGTGCAG,3350 fluorescence intensity (a.u.)
10,GACACCACCACAACGACGGCACCACCTCGTCCTTGCCATGCGGAGTCACCTAGTGCAG,4540 fluorescence intensity (a.u.)
11,ATCTCAACTTTTAACGGTGCCACGTGGTCCAATCTGCAGCCGGAGTCACCTAGTGCAG,7880 fluorescence intensity (a.u.)
12,CTTGAGGCGCCGAAGTGACCTCTTCCACCGCGCCGCCGCCCGGAGTCACCTAGTGCAG,4660 fluorescence intensity (a.u.)
13,CTTCGTCTCCTCCTCCTCCACGTCATCCGCCTCCGCCTCCCGGAGTCACCTAGTGCAG,26000 fluorescence intensity (a.u.)
14,GGAAAGGCGCCACGTAATAAATAGAAACAGACTCAGCACTCGGAGTCACCTAGTGCAG,6760 fluorescence intensity (a.u.)
15,CCATATTGGCAATGTGACATGTCCTACATATGCTAAATTGCGGAGTCACCTAGTGCAG,3350 fluorescence intensity (a.u.)
16,CGTCCGCCCGTCCGTCCTGCAGAGAGACACATCACCGTGTCGGAGTCACCTAGTGCAG,6210 fluorescence intensity (a.u.)
17,GCAGGCTGAATAAAACTGTATTGTCATCGATGATATTGGTCGGAGTCACCTAGTGCAG,5020 fluorescence intensity (a.u.)
18,CGCCTCACACCGCGGCCCCTCGCCACCGTCCCTGCGTCGCCGGAGTCACCTAGTGCAG,3420 fluorescence intensity (a.u.)
19,CCATTCTCCGCCGTTGGATCCATCACCTCAATCAACATCACGGAGTCACCTAGTGCAG,3250 fluorescence intensity (a.u.)
20,CCTAATTAATCCGTCATTAGCAAATGTTTATTGTAGCACCCGGAGTCACCTAGTGCAG,4220 fluorescence intensity (a.u.)
21,GAGGGAGAGAGAGAGAGAGGGGACACGAGATACGCGGAATCGGAGTCACCTAGTGCAG,5220 fluorescence intensity (a.u.)
22,GAGACGGCGAGCGGCTGACGTGATGTGGGTAGGAAGAACGCGGAGTCACCTAGTGCAG,31100 fluorescence intensity (a.u.)
23,AACAACAGATGCATCAGCACAACGAGATGCCTTCAATTGCCGGAGTCACCTAGTGCAG,3230 fluorescence intensity (a.u.)
24,TGGATTGGATTAGATAATTTCTCCAACTCAGCGTCACAAACGGAGTCACCTAGTGCAG,3140 fluorescence intensity (a.u.)
25,TTCTTTCATCAATTACTAGGCCTAGATGGGTAATTTTGGTCGGAGTCACCTAGTGCAG,3200 fluorescence intensity (a.u.)
26,ATTCCAAAATCCCTTTCCCTCCACGACACCGCTTCCAGCCCGGAGTCACCTAGTGCAG,23600 fluorescence intensity (a.u.)
27,TATATGTTAATGAATCTTGACACATATATAATAAACCGTGCGGAGTCACCTAGTGCAG,4190 fluorescence intensity (a.u.)

row,Sequence,binding signal
1,GGCTTCCTCTCCGACTCCTCCTCCGATGACGAGGAGGGCGCGGAGTCACCTAGTGCAG,3740 fluorescence intensity (a.u.)
2,GGGCAGTGCCCCGTCCCCATCATCGCCGACGTCGACATCTCGGAGTCACCTAGTGCAG,4370 fluorescence intensity (a.u.)
3,TTGCAGTTGGGACCCAGCCGCCACACGTGCACAGGTCCATCGGAGTCACCTAGTGCAG,3690 fluorescence intensity (a.u.)
4,CAGGTTCCTCGCCGGCTACGTCTCCGTCGGTAACCTGACGCGGAGTCACCTAGTGCAG,34300 fluorescence intensity (a.u.)
5,TTAAAGTGCGCCATTGCCGCTCCGGTCGCGGCCCCTCCCTCGGAGTCACCTAGTGCAG,3570 fluorescence intensity (a.u.)
6,AGTCGTCGTCCTTCCCCGATGCGGCGATAGTCCACCGGGCCGGAGTCACCTAGTGCAG,16600 fluorescence intensity (a.u.)
7,CGTCTCGCCTTGCCCCGTCCACTAACCCTAGCGGCAACTGCGGAGTCACCTAGTGCAG,3160 fluorescence intensity (a.u.)
8,ACTCCACATTATGGCCGGCACATTTGTCATACTACCTACTCGGAGTCACCTAGTGCAG,3210 fluorescence intensity (a.u.)
9,GCGTTATCCGCAGGATGACGTCATCCTCCTTGGTCTTCGCCGGAGTCACCTAGTGCAG,27800 fluorescence intensity (a.u.)
10,AAGGTAGCCGTACGCGTCCTAACAATGTGACTCGTCCATACGGAGTCACCTAGTGCAG,4330 fluorescence intensity (a.u.)
11,TCGTACATAATATATCAGAATTATACATAAATTTGGTTTTCGGAGTCACCTAGTGCAG,3140 fluorescence intensity (a.u.)
12,TTCGCTGTTTCAACCGTCCTTGACGTCAACGGTGACATGGCGGAGTCACCTAGTGCAG,9790 fluorescence intensity (a.u.)
13,GTTTGCGAGGAATAGCGGGAACGATCCGCGCCACCACGAACGGAGTCACCTAGTGCAG,18000 fluorescence intensity (a.u.)
14,AAGATTGCCACGTAACCGAACTGCTGCCACGCGGCCAATCCGGAGTCACCTAGTGCAG,15900 fluorescence intensity (a.u.)
15,AGTTTTCCCAACGTCAGAGGATCGTGACGTGGACGTGAGGCGGAGTCACCTAGTGCAG,27500 fluorescence intensity (a.u.)
16,TAAACACAGCCTGATGCAAAACCTCCCTGAACTCTGTACTCGGAGTCACCTAGTGCAG,24700 fluorescence intensity (a.u.)
17,CATCGCCGTCGCCGATTCTCCCTTGTCTTCCTCCTCTTCGCGGAGTCACCTAGTGCAG,3270 fluorescence intensity (a.u.)
18,GCCCGCAACCCGCTGCCACGCTGCCCACCGCCGCTGCGCCCGGAGTCACCTAGTGCAG,4640 fluorescence intensity (a.u.)
19,AACACCAATCACCACGTACGCCGACCAACCCCATCCACCCCGGAGTCACCTAGTGCAG,6870 fluorescence intensity (a.u.)
20,GATGAATCCGCCGAGTGTGTTATTGATTGTATGATTTGGACGGAGTCACCTAGTGCAG,3660 fluorescence intensity (a.u.)
21,ATCGAATGATCTAACGGCTCACACACTCCCACGCACTTTGCGGAGTCACCTAGTGCAG,3290 fluorescence intensity (a.u.)
22,GGACCTAAATCTCTTCAAATGACACGACATCTTTACAAATCGGAGTCACCTAGTGCAG,5600 fluorescence intensity (a.u.)
23,GATGTCGCTGCCGCGCCTACCGGCTGTCGTCATCGCTGCCCGGAGTCACCTAGTGCAG,4710 fluorescence intensity (a.u.)
24,TATTGCCATGTAGGACCAAAACCAACGTGGATTGAAGCGGCGGAGTCACCTAGTGCAG,4740 fluorescence intensity (a.u.)
25,CGGCTGCTGCTCGCCGTGCCACGTGGCACTCGACTGGCGCCGGAGTCACCTAGTGCAG,26700 fluorescence intensity (a.u.)
26,AGTTTAGTACTTCCATATGTTAAACACATTAAATTTATGGCGGAGTCACCTAGTGCAG,31500 fluorescence intensity (a.u.)
27,TCAACAATCAAGAAAATGGCACCAGCAATTGAAAGAAGTGCGGAGTCACCTAGTGCAG,3480 fluorescence intensity (a.u.)

# Rewritten with bars between the fields: entries from further up.
row | Sequence | binding signal
10 | AAGGTAGCCGTACGCGTCCTAACAATGTGACTCGTCCATACGGAGTCACCTAGTGCAG | 4330 fluorescence intensity (a.u.)
11 | TCGTACATAATATATCAGAATTATACATAAATTTGGTTTTCGGAGTCACCTAGTGCAG | 3140 fluorescence intensity (a.u.)

# Reference: paper PMC7819943, “Rice protein-binding microarrays: a tool to detect cis-acting elements near promoter regions in rice”
